The other results are listed elsewhere or left out.

Amino acid sequences for entries named in this document (tags omitted). A change or cut given only in a name is not applied to a line headed by its entry.
UniProt P61081: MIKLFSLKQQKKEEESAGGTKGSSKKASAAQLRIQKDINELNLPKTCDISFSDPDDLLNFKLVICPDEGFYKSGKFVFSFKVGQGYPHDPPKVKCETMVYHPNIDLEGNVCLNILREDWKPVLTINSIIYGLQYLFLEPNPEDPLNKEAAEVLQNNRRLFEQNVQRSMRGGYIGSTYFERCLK
UniProt Q3KQV9: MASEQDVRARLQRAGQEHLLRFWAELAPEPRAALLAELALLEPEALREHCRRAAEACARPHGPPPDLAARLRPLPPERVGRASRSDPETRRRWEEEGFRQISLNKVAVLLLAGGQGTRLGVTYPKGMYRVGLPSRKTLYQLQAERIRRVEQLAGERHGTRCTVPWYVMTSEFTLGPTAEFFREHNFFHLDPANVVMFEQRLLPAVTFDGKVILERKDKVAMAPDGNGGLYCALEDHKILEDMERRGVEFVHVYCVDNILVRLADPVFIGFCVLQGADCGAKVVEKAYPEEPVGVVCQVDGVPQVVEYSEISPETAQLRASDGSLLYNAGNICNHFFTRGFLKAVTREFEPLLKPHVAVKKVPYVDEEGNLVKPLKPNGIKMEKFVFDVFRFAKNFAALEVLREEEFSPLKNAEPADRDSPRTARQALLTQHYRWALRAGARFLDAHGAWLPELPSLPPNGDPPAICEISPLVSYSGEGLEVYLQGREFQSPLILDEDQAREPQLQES
UniProt P0DPH7, whole entry, looked up: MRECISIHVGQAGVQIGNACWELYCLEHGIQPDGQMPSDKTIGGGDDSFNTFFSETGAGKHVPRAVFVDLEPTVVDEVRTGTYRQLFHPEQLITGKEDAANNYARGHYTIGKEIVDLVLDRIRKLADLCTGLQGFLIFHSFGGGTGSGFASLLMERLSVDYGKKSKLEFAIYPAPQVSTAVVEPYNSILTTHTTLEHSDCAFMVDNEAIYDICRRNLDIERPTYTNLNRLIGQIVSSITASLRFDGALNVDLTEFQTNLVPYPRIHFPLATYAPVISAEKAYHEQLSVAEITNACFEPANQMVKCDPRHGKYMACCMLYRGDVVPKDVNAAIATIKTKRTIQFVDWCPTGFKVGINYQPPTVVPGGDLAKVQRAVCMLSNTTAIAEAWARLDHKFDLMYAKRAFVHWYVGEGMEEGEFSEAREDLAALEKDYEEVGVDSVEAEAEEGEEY
UniProt O60637: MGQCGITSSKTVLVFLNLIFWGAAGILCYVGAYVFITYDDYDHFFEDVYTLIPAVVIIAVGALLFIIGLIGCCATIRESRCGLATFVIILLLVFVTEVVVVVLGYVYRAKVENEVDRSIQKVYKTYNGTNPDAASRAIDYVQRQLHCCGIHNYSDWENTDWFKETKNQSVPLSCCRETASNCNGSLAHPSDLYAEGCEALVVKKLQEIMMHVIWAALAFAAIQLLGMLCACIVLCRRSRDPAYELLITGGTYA
UniProt Q6IPR3: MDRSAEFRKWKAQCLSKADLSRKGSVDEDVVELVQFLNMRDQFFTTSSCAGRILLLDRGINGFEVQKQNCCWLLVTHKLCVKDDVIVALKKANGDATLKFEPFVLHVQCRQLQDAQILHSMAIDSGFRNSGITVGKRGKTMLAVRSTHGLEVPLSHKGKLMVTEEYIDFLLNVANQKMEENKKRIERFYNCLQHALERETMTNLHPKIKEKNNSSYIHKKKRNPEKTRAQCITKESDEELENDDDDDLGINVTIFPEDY
UniProt P61077: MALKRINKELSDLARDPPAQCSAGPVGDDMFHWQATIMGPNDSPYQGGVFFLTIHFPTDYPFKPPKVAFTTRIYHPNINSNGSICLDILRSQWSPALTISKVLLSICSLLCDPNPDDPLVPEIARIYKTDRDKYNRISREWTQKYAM
UniProt Q6DKK2: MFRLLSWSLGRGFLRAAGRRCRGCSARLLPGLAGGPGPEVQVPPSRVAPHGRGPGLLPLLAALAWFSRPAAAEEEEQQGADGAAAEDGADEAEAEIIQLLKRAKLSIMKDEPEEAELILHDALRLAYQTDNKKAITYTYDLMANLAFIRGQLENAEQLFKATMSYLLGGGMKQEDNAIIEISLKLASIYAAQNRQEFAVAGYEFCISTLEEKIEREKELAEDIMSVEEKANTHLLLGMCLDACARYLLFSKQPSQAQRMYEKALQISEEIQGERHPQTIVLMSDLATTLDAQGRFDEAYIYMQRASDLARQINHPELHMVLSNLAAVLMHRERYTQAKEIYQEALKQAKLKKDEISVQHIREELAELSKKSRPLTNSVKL
UniProt Q16222: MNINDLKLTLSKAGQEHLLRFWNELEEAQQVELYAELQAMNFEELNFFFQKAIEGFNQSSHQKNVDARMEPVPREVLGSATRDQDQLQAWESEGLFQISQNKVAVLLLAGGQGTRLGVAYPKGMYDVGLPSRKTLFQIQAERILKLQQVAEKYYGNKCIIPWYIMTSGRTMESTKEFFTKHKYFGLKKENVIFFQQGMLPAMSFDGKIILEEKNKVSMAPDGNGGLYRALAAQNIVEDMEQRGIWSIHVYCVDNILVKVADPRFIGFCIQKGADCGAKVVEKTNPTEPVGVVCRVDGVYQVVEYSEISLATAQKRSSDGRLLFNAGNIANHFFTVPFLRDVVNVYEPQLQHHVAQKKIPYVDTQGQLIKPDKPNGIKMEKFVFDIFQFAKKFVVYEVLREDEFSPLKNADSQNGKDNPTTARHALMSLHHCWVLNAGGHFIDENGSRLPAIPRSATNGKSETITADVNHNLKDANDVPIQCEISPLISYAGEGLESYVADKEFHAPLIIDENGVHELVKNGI
UniProt Q9BUF5, whole entry, looked up: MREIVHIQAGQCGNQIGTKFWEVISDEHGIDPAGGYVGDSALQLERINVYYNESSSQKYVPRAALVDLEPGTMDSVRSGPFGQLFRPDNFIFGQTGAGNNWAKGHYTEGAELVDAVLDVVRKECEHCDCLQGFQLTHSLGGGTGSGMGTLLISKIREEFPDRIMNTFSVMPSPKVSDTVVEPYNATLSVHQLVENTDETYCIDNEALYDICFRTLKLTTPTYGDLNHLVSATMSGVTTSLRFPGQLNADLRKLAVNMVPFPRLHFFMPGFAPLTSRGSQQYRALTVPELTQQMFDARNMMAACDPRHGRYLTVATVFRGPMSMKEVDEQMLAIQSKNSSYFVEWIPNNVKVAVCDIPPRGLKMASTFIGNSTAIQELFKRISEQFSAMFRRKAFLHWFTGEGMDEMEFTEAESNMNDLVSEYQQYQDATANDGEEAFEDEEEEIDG
UniProt Q2NL82: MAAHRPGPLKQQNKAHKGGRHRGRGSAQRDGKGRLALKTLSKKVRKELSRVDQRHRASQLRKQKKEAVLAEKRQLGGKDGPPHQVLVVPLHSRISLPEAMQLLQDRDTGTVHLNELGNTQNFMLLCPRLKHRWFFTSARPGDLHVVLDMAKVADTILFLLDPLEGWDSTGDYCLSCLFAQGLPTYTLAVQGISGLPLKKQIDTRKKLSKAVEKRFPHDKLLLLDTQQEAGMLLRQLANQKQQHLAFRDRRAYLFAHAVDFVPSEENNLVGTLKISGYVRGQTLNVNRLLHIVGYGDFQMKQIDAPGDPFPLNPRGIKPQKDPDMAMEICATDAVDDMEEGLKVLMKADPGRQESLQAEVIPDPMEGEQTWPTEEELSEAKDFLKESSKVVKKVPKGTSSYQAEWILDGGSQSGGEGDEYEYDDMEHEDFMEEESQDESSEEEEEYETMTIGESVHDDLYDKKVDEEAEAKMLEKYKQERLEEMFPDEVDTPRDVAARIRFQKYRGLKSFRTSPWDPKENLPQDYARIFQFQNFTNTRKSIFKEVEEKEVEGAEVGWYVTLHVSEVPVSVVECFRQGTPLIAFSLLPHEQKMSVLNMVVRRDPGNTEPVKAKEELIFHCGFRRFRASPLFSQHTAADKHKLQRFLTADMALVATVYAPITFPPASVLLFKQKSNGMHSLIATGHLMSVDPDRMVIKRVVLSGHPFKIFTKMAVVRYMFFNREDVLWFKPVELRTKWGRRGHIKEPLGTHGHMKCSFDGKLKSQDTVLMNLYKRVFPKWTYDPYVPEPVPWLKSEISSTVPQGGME
UniProt Q8NG11: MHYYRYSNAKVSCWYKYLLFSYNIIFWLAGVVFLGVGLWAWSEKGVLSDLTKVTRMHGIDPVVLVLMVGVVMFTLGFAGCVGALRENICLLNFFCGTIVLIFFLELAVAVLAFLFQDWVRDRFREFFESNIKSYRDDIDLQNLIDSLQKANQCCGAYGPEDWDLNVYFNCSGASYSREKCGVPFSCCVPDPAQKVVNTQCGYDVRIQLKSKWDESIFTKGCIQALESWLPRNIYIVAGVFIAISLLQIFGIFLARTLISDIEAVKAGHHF
UniProt Q9BVA1, whole entry, looked up: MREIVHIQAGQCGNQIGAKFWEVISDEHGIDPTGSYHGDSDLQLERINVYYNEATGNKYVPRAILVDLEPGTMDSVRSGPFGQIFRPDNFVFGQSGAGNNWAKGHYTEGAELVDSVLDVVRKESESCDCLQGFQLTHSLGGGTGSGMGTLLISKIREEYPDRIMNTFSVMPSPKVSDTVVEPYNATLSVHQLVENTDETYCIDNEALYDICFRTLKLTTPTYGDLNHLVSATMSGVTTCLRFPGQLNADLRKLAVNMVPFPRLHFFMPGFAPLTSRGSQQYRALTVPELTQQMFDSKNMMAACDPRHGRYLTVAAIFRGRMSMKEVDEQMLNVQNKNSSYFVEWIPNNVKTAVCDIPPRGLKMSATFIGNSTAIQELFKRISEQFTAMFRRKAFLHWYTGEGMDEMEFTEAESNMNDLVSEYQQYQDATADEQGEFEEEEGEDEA
UniProt Q96J42: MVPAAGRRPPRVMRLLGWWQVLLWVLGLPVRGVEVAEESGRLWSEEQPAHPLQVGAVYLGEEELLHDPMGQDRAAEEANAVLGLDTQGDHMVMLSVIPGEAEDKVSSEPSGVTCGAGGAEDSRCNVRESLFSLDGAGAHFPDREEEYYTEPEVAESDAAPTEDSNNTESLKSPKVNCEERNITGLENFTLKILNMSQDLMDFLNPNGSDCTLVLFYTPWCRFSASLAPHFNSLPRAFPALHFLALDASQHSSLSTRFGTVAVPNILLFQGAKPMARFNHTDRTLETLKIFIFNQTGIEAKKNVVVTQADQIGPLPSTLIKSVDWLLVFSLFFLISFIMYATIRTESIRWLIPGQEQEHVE
UniProt Q9BTX7: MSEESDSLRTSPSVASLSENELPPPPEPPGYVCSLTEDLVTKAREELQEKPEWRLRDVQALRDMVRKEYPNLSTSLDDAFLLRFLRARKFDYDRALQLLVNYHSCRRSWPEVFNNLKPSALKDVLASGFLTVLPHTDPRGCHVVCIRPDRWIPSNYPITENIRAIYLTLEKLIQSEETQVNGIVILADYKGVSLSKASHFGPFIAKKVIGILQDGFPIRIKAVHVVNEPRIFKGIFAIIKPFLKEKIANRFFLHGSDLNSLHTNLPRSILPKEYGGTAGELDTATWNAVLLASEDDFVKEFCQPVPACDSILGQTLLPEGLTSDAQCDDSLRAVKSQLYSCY
UniProt Q99614: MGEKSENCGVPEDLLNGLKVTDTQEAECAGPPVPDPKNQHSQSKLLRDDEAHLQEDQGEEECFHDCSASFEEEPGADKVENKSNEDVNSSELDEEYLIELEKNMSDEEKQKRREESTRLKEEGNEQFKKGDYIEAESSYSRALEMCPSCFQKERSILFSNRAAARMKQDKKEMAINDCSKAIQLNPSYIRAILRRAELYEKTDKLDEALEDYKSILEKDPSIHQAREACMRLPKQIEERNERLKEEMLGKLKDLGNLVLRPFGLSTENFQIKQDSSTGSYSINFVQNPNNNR
UniProt Q9UJT0: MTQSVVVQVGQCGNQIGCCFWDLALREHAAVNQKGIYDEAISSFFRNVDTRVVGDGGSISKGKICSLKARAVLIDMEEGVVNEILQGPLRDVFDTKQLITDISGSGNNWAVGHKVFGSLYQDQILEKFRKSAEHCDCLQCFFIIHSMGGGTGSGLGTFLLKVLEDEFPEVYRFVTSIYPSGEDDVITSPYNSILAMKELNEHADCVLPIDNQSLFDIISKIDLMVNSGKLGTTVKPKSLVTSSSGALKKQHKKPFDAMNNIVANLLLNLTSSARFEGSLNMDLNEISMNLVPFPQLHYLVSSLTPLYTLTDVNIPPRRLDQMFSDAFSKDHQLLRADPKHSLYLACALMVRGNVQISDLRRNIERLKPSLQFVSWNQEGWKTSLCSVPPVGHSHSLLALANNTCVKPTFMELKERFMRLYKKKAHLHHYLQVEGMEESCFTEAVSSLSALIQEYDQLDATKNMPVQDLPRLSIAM
UniProt Q969M7: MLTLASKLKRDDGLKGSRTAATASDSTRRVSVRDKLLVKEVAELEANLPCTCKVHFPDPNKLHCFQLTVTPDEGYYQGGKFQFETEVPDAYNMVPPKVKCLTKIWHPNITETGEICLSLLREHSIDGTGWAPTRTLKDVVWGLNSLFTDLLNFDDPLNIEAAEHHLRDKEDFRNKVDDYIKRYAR
UniProt P49459, whole entry, looked up: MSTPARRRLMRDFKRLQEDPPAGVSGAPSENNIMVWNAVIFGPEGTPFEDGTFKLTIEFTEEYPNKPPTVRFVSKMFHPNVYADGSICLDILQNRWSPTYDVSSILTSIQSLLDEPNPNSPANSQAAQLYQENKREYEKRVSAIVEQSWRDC

Compound in one test: CN1CCN(CCOc2cc(OC3CCOCC3)c3c(Nc4c(Cl)ccc5c4OCO5)ncnc3c2)CC1 [saracatinib]
The test is described as follows: log2 fold change, soluble protein after heating vs DMSO (PISA); higher = thermal stabilisation; K562 cells, 10 uM, 30 min; active = over 0.2 and 3.5 SD of the protein, either way, in both replicates (recomputed). In short, it runs like this: (§1)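 Values are thermal stability changes relative to control samples and are taken from duplicates. They are stated as log2 fold changes. Before quantification by TMTpro 16plex LC-MS/MS with equalised channel sums, K562 cells at 2×10^6 cells/mL were treated with 10 μM compound for 30 min, heated in aliquots for 3 min across 48°C-58°C, pooled, extracted in PBS with 0.5% NP-40 at 4°C, and centrifuged at 21,000xg for 90 min to give the soluble supernatant.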
As to TUBGCP2 isoform 4 (UniProt Q9BSJ2), the log2 fold change is inactive: -0.099.

On to UBE2L3 isoform 3 (UniProt P68036), for which the log2 fold change was inactive: 0.006.

Consider UBE2M (UniProt P61081), for which the log2 fold change is inactive: 0.009.

U2SURP (UniProt O15042): the log2 fold change was inactive: -0.006.

UAP1L1 (UniProt Q3KQV9): the log2 fold change is inactive: 0.007.

For TUBA3C (UniProt P0DPH7), the log2 fold change is inactive: 0.065.

TWF1 (UniProt Q12792): the log2 fold change is inactive: -0.025.

Regarding TXNDC16 (UniProt Q9P2K2), the log2 fold change is inactive: -0.117.

UBE2N (UniProt P61088): the log2 fold change is inactive: -0.002.

For TSPAN3 (UniProt O60637), the log2 fold change was inactive: 0.04.

As to UBA5 (UniProt Q9GZZ9), the log2 fold change is inactive: 0.02.

Regarding TUBB4A (UniProt M0QYM7), the log2 fold change is inactive: -0.218.

For UBE2Z (UniProt Q9H832), the log2 fold change was inactive: 0.012.

Regarding TTN isoform 12 (UniProt Q8WZ42), the log2 fold change was inactive: -0.139.

Turning to TUBB1 (UniProt Q9H4B7), the log2 fold change was inactive: 0.06.

As for TSN (UniProt Q15631), the log2 fold change was inactive: -0.002.

On to TYW3 (UniProt Q6IPR3), for which the log2 fold change was inactive: 0.054.

As for UBE2D3 isoform 3 (UniProt P61077), the log2 fold change was inactive: 0.

Take UBE2K (UniProt P61086): the log2 fold change is inactive: 0.037.

As for TTC19 (UniProt Q6DKK2), the log2 fold change was inactive: -0.01.

Consider UAP1 (UniProt Q16222), for which the log2 fold change was inactive: -0.006.

Regarding TUBB6 (UniProt Q9BUF5), the log2 fold change was inactive: 0.055.

For the target TXNL4A (UniProt P83876), the log2 fold change was inactive: 0.077.

On to TSR1 (UniProt Q2NL82), for which the log2 fold change was inactive: -0.079.

For the target TUBB6 (UniProt K7ES63), the log2 fold change is inactive: -0.263.

For TSPAN14 (UniProt Q8NG11), the log2 fold change is inactive: 0.055.

With TWF2 (UniProt Q6IBS0), the log2 fold change is inactive: 0.008.

As to TUBB2B (UniProt Q9BVA1), the log2 fold change was inactive: 0.013.

Turning to TXLNG (UniProt Q9NUQ3), the log2 fold change is inactive: -0.036.

Consider TXNDC15 (UniProt Q96J42), for which the log2 fold change was inactive: -0.037.

TTPAL (UniProt Q9BTX7): the log2 fold change is inactive: 0.182.

For the target TTC1 (UniProt Q99614), the log2 fold change was inactive: -0.008.

Turning to TSTA3 (UniProt Q13630), the log2 fold change is inactive: 0.033.

As for TTC7B isoform 2 (UniProt Q86TV6), the log2 fold change is inactive: 0.103.

On to TUBE1 (UniProt Q9UJT0), for which the log2 fold change was inactive: -0.002.

For UBE2F isoform 2 (UniProt Q969M7), the log2 fold change is inactive: 0.031.

Regarding UBE2A (UniProt P49459), the log2 fold change is inactive: -0.028.

In the case of TTC27 (UniProt Q6P3X3), the log2 fold change is inactive: -0.107.

For TTC13 (UniProt Q8NBP0), the log2 fold change is inactive: -0.237.

Take TUBA1B (UniProt P68363): the log2 fold change is inactive: 0.011.

Compound in the next test: CN1CCN(c2nc(C3=C(c4c[nH]c5ccccc45)C(=O)NC3=O)c3ccccc3n2)CC1 [sotrastaurin]
The description is as above. In short, it runs like this:
as §1
For TUBGCP2 isoform 4 (UniProt Q9BSJ2), the log2 fold change is inactive: -0.27.

UBE2L3 isoform 3 (UniProt P68036): the log2 fold change is inactive: 0.054.

With UBE2M (UniProt P61081), the log2 fold change is inactive: 0.021.

As to U2SURP (UniProt O15042), the log2 fold change was inactive: -0.133.

For the target UAP1L1 (UniProt Q3KQV9), the log2 fold change was inactive: 0.012.

In the case of TUBA3C (UniProt P0DPH7), the log2 fold change was inactive: 0.051.

On to TWF1 (UniProt Q12792), for which the log2 fold change is inactive: 0.015.

For TXNDC16 (UniProt Q9P2K2), the log2 fold change is inactive: -0.043.

As to UBE2N (UniProt P61088), the log2 fold change is inactive: -0.021.

On to TSPAN3 (UniProt O60637), for which the log2 fold change is inactive: 0.05.

Turning to UBA5 (UniProt Q9GZZ9), the log2 fold change is inactive: 0.013.

TUBB4A (UniProt M0QYM7): the log2 fold change was inactive: 0.148.

For the target UBE2Z (UniProt Q9H832), the log2 fold change is inactive: -0.024.

On to TTN isoform 12 (UniProt Q8WZ42), for which the log2 fold change is inactive: 0.103.

On to TUBB1 (UniProt Q9H4B7), for which the log2 fold change is inactive: -0.032.

Regarding TSN (UniProt Q15631), the log2 fold change is inactive: 0.013.

On to TYW3 (UniProt Q6IPR3), for which the log2 fold change was inactive: 0.036.

For UBE2D3 isoform 3 (UniProt P61077), the log2 fold change was inactive: 0.024.

With UBE2K (UniProt P61086), the log2 fold change is inactive: 0.002.

Regarding TTC19 (UniProt Q6DKK2), the log2 fold change was inactive: -0.008.

As for UAP1 (UniProt Q16222), the log2 fold change was inactive: 0.012.

Regarding TUBB6 (UniProt Q9BUF5), the log2 fold change was inactive: 0.103.

TXNL4A (UniProt P83876): the log2 fold change was inactive: 0.067.

With TSR1 (UniProt Q2NL82), the log2 fold change was inactive: -0.042.

As for TUBB6 (UniProt K7ES63), the log2 fold change was inactive: -0.025.

Regarding TSPAN14 (UniProt Q8NG11), the log2 fold change is inactive: 0.034.

Take TWF2 (UniProt Q6IBS0): the log2 fold change is inactive: -0.031.

As to TUBB2B (UniProt Q9BVA1), the log2 fold change is inactive: 0.06.

As to TXLNG (UniProt Q9NUQ3), the log2 fold change was inactive: -0.041.

TXNDC15 (UniProt Q96J42): the log2 fold change is inactive: 0.002.

Turning to TTPAL (UniProt Q9BTX7), the log2 fold change was inactive: -0.038.

With TTC1 (UniProt Q99614), the log2 fold change was inactive: 0.064.

As for TSTA3 (UniProt Q13630), the log2 fold change is inactive: 0.029.

For TTC7B isoform 2 (UniProt Q86TV6), the log2 fold change was inactive: -0.072.

For the target TUBE1 (UniProt Q9UJT0), the log2 fold change was inactive: 0.009.

As for UBE2F isoform 2 (UniProt Q969M7), the log2 fold change is inactive: 0.031.

Turning to UBE2A (UniProt P49459), the log2 fold change was inactive: 0.062.

For the target TTC27 (UniProt Q6P3X3), the log2 fold change was inactive: -0.203.

For TTC13 (UniProt Q8NBP0), the log2 fold change is inactive: 0.086.

Turning to TUBA1B (UniProt P68363), the log2 fold change was inactive: 0.043.
